Results on two molecules are retold here after article PMC9908889.

These are yes or no findings as the source states them, for the method shown. Some entries that bind do so weakly or less than the wild type. For some assays here: Where a sequence is shown, tags or fusion partners need not be part of it.

Assay [1] concerns the target T1, ^15N-labeled MORFWH2 (aa 100–182) (human) (UniProt Q8WYB5).
T1 sequence: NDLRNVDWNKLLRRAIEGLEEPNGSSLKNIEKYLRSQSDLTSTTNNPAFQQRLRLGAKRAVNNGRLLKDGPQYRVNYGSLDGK
As to the kind of experiment: NMR titration; 1H,15N HSQC of 0.1–0.2 mM 15N-labeled MORFWH2 with increasing amount of unlabeled His-MORFWH1, 298 K; both purified.

The target of assay [2] is MORF_(WH2-DPF-MYST) (aa 100–703 with additional 3 lysine residues at the C-terminus) (human) (UniProt Q8WYB5). As to the kind of experiment: co-expression and co-purification; MORF_(WH2-DPF-MYST) co-expressed and purified with BRPF1 (aa 89–139); which chain carried the affinity tag is not stated.

B1: His-MORFWH1 (aa 5–84) (domain or fragment, UniProt Q8WYB5 5-84)
chain: ANPLYTEWILEAIQKIKKQKQRPSEERICHAVSTSHGLDKKTVSEQLELSVQDGSVLKVTNKGLASYKDPDNPGRFSSVK
Regarding B1, the binding entry in assay [1] is recorded as “no binding”.

B2: BRPF1 (aa 89–139) (domain or fragment, UniProt P55201 89-139)
chain: VMSYAQAQRMVEVDLHGRVHRISIFDNLDVVSEDEEAPEEAPENGSNKENT
As to B2, in assay [2], the binding result is “binds”.
